# Results are given in words; binding and its absence hold for the method and conditions named. In cells and extracts the contact can be indirect. Some binding calls cover weakened binding; strength is not graded here.
# Chains of the proteins cited; added tags and fusions are not shown.
# UniProt P42224: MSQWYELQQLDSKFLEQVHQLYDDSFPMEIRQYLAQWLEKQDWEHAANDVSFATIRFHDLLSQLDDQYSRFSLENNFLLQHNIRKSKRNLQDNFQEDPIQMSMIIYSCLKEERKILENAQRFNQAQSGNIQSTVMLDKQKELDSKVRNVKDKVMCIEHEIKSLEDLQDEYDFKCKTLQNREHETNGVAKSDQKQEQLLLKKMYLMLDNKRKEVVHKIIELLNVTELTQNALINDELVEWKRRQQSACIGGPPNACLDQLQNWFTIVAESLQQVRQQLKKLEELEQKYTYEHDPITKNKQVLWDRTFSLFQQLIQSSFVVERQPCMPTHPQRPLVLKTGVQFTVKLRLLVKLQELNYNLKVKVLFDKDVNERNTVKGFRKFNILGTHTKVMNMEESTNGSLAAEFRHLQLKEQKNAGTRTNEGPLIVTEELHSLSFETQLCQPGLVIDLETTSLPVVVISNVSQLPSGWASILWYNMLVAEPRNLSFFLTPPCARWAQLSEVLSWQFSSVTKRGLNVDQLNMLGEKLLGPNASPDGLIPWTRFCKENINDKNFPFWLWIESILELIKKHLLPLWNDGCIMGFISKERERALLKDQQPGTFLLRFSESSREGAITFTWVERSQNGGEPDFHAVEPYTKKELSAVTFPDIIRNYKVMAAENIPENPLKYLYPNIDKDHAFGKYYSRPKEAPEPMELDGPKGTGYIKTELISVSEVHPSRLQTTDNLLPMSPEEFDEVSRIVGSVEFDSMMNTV
# B1: Makorin-2 (protein, UniProt Q9H000 1-416)
# chain: MSTKQITCRYFMHGVCREGSQCLFSHDLANSKPSTICKYYQKGYCAYGTRCRYDHTRPSAAAGGAVGTMAHSVPSPAFHSPHPPSEVTASIVKTNSHEPGKREKRTLVLRDRNLSGMAERKTQPSMVSNPGSCSDPQPSPEMKPHSYLDAIRSGLDDVEASSSYSNEQQLCPYAAAGECRFGDACVYLHGEVCEICRLQVLHPFDPEQRKAHEKICMLTFEHEMEKAFAFQASQDKVCSICMEVILEKASASERRFGILSNCNHTYCLSCIRQWRCAKQFENPIIKSCPECRVISEFVIPSVYWVEDQNKKNELIEAFKQGMGKKACKYFEQGKGTCPFGSKCLYRHAYPDGRLAEPEKPRKQLSSQGTVRFFNSVRLWDFIENRESRHVPNNEDVDMTELGDLFMHLSGVESSEP
# Molecular target: signal transducer and activator of the transcription (STAT)1 (UniProt P42224)
# Experiment: co-IP; HEK293T cells transfected with the indicated plasmids for 48-72 h (MKRN2 or STAT1 overexpressed); lysed in IP buffer (Tris, EDTA, NaCl, glycerol, NP40), antibodies at 4°C overnight, agarose beads 4-6 h at 4°C; blot
binder,measurement,value
B1,binding,binds
